This note sets out measurements from the supplement of paper PMC10849652.

By UniProt entry, the sequences of proteins in these tests, tags left out. Where a name states a change or a piece, a line headed by the entry shows the natural chain unless it says otherwise.
UniProt P52594: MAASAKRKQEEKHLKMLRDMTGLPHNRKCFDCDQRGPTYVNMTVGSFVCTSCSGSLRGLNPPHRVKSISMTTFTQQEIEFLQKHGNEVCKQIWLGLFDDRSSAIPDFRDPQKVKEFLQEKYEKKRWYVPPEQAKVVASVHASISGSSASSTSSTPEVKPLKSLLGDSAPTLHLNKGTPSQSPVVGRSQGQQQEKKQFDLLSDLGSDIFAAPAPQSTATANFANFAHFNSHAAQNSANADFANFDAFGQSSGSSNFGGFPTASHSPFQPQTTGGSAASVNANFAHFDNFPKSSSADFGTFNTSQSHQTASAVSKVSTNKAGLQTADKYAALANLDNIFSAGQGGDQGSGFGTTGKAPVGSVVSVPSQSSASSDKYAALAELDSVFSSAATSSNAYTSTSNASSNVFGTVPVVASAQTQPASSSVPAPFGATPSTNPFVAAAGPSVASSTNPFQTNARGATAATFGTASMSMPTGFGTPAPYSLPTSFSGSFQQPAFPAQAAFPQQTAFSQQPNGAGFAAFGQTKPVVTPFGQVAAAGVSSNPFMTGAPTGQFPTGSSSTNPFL
UniProt Q92667: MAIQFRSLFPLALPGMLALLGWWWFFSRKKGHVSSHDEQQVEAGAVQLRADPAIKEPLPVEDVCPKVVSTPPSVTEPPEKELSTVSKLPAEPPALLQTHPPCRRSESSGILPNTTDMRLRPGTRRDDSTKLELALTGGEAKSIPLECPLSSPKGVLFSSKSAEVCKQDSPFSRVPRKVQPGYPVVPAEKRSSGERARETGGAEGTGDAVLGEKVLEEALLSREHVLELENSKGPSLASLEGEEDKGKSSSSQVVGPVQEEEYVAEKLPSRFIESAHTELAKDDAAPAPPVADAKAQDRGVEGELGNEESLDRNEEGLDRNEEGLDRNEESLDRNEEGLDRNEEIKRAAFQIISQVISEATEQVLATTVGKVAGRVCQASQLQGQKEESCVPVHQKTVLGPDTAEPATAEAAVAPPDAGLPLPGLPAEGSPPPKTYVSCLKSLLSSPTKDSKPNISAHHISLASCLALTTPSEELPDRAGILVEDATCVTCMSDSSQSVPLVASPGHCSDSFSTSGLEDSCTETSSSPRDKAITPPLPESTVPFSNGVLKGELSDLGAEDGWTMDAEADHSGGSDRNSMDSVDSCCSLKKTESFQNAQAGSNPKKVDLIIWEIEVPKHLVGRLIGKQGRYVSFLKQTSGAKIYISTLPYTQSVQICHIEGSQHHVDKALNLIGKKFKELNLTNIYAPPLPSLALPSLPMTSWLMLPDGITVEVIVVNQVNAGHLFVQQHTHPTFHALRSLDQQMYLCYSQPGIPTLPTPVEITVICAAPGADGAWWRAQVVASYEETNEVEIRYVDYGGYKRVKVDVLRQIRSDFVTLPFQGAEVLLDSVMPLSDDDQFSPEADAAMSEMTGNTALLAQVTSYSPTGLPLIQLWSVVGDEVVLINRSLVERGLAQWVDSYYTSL
UniProt Q7Z6V5: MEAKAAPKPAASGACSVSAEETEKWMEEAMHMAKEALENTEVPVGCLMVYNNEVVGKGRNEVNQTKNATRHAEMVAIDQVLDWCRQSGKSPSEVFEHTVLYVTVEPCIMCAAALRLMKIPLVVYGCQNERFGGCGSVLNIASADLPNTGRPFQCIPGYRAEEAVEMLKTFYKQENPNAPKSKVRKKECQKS
UniProt Q53H12: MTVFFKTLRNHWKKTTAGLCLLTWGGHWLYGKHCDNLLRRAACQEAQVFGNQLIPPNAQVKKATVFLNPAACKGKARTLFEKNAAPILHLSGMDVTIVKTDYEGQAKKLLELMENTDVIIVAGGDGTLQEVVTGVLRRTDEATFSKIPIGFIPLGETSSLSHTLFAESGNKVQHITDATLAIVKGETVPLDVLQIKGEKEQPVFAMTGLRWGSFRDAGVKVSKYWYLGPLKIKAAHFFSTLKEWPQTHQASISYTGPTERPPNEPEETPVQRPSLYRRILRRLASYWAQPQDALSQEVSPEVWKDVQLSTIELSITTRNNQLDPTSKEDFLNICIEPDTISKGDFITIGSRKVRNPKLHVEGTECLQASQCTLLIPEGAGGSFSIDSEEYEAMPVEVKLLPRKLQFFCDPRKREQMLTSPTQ
UniProt O43865, whole entry, looked up: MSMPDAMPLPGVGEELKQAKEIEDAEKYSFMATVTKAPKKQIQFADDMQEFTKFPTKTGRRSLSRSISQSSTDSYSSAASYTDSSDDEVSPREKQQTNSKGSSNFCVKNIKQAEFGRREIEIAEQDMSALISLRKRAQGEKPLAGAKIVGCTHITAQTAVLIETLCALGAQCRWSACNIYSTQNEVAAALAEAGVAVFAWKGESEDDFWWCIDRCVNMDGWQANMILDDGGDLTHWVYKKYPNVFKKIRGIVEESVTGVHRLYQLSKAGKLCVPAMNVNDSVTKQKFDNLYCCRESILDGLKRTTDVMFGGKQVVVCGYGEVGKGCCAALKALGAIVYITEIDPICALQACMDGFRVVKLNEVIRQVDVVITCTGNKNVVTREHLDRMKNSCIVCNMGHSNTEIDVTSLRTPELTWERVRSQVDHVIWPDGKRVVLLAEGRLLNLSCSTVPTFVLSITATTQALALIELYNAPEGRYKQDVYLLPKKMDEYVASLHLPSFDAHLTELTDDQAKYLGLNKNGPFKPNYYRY
UniProt O43823: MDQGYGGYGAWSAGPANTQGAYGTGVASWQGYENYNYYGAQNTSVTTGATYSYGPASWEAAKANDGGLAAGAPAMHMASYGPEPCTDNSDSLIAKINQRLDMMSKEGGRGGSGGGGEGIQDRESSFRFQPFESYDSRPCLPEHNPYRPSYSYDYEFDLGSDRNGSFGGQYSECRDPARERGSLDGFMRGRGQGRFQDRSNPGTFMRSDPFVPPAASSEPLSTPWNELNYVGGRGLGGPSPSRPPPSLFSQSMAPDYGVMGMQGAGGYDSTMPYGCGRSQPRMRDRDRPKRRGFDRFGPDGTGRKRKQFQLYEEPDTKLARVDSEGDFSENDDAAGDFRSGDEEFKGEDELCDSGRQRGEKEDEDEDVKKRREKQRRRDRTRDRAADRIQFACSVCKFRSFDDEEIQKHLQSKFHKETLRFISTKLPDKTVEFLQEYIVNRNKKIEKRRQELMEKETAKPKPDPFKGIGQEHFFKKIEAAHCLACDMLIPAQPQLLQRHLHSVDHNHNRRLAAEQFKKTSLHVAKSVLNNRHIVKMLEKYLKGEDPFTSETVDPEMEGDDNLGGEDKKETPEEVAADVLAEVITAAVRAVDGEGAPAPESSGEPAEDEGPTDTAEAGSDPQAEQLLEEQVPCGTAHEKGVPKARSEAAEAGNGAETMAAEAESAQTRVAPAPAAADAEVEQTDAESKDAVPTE
UniProt P07311: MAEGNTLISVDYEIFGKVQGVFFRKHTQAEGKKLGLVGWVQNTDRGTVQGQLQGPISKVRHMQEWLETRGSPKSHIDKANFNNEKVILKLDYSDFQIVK
UniProt Q96HN2, whole entry, looked up: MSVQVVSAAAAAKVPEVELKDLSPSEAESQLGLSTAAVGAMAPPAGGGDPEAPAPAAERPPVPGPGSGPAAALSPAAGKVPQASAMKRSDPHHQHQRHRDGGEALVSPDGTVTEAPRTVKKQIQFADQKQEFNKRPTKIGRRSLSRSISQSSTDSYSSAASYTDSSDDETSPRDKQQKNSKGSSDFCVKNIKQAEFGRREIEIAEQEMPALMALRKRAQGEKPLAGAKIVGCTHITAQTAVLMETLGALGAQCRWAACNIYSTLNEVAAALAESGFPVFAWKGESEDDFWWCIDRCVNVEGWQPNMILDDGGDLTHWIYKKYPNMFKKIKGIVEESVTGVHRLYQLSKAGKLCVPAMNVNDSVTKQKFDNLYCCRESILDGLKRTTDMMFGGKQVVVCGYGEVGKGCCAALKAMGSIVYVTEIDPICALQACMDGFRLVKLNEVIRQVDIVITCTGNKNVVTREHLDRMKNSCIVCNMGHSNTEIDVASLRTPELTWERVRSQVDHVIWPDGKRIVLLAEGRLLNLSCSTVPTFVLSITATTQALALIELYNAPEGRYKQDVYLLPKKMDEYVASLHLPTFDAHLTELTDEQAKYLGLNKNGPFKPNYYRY
UniProt P00813: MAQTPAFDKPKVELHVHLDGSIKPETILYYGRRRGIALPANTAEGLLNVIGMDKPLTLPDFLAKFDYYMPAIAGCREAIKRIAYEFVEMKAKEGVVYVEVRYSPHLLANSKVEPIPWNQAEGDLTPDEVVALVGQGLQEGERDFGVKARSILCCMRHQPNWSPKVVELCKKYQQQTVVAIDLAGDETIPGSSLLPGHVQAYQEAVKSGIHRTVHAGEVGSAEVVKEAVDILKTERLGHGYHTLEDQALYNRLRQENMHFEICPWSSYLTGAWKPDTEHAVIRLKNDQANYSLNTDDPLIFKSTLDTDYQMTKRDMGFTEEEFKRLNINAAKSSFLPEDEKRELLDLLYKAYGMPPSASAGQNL
UniProt P30566: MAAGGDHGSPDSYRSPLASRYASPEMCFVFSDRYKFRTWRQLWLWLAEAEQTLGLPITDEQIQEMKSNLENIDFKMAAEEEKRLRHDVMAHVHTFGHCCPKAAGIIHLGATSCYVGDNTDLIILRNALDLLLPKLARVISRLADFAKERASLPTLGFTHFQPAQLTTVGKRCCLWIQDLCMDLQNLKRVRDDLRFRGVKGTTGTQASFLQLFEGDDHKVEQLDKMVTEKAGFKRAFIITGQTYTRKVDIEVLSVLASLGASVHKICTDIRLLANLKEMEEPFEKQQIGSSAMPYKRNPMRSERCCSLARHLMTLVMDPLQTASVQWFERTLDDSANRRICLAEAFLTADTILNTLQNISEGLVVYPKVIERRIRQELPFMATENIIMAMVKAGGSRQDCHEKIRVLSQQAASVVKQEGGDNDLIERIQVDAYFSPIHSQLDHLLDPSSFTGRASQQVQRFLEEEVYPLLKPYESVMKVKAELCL
UniProt Q9UHB7: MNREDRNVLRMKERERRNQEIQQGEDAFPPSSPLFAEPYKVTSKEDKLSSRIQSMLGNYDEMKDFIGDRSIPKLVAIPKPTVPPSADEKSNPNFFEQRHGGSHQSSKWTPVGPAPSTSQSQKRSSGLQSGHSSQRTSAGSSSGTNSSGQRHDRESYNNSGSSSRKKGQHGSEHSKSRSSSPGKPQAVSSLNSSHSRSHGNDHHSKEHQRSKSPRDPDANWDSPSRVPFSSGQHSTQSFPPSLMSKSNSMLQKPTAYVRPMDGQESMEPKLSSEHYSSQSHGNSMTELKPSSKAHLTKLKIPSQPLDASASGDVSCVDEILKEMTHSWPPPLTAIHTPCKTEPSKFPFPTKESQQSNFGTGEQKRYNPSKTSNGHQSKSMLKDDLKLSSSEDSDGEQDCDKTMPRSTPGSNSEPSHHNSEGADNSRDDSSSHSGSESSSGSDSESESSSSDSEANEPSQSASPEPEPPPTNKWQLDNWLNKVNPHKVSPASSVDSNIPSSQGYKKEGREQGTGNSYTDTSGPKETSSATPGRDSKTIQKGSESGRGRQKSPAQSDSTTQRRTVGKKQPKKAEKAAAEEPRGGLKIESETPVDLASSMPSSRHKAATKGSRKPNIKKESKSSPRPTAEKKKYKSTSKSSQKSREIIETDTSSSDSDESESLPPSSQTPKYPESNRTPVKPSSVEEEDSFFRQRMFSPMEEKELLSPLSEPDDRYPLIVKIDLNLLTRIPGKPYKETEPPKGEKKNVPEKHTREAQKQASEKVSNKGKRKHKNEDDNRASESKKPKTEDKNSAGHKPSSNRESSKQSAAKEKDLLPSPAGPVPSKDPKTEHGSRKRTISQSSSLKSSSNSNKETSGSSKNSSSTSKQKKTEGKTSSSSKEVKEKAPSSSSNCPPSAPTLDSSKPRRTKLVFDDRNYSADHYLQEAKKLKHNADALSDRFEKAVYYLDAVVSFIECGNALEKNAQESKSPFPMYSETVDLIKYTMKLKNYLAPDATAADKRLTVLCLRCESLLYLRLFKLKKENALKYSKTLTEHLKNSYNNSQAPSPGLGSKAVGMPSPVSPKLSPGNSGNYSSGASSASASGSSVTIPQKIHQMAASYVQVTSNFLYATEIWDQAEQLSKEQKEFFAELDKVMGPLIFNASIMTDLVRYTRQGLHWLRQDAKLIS
UniProt Q4G176: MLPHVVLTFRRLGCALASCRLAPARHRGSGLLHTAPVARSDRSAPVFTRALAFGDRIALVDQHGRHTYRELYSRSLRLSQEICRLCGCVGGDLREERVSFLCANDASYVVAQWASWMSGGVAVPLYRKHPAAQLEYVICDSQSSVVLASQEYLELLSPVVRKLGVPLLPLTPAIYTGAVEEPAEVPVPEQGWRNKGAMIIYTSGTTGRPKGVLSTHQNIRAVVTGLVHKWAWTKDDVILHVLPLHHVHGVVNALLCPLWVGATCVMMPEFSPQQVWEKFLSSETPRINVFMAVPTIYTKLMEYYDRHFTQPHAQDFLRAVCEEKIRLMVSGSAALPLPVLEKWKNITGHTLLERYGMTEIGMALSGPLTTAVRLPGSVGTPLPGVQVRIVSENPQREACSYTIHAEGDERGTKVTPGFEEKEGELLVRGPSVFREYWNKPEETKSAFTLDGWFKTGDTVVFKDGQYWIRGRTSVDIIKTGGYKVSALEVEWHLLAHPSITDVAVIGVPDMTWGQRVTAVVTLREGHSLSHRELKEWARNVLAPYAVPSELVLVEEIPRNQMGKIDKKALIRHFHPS

The other results are listed elsewhere or left out.

Compound in the first test: O=C1NC(=O)C(c2cnc3ccccn23)=C1c1cn2c3c(cc(F)cc13)CN(C(=O)N1CCCCC1)CC2
Kind of test: log2 fold change, soluble protein after heating vs DMSO (PISA); higher = thermal stabilisation; K562 lysate, 10 uM; active = over 0.2 and 3.5 SD of the protein, either way, in both replicates (recomputed). In short, it runs like this: (§1)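 To prepare the extract, K562 pellets were dounce-homogenised in PBS pH 7.4 with 1 mM MgCl2, giving crude material at 1 mg/mL protein. This was treated with 10 μM compound for 30 min, then heated in aliquots for 3 min over 48°C-58°C before pooling and addition of NP-40 to 0.5% at 4°C. Centrifugation at 21,000xg for 90 min left soluble protein in the supernatant, which TMTpro 16plex LC-MS/MS quantified with equalised channel sums. Results are log-two fold changes in thermal stability compared with solvent controls, from duplicates.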
On to ACY1 (UniProt Q03154), for which the log2 fold change is inactive: -0.048.

As to ACTB, A0A2R8Y793, the log2 fold change is inactive: 0.022.

Turning to AKAP8L (UniProt Q9ULX6), the log2 fold change is inactive: -0.078.

As to AGFG1 isoform 4 (UniProt P52594), the log2 fold change is inactive: -0.056.

Regarding ACTR10 (UniProt Q9NZ32), the log2 fold change is inactive: 0.017.

Regarding AFF1 isoform 2 (UniProt P51825), the log2 fold change was inactive: -0.046.

As to AKAP1 (UniProt Q92667), the log2 fold change is inactive: -0.019.

Regarding ADAT2 (UniProt Q7Z6V5), the log2 fold change was inactive: 0.037.

As to ADIPOR2 (UniProt Q86V24), the log2 fold change is inactive: 0.042.

For ACTL8 (UniProt Q9H568), the log2 fold change was inactive: 0.018.

With ACTR1A (UniProt P61163), the log2 fold change is inactive: 0.048.

As to AGK (UniProt Q53H12), the log2 fold change is inactive: 0.058.

Consider ADAM9 (UniProt Q13443), for which the log2 fold change is inactive: -0.004.

Consider AHCYL1 (UniProt O43865), for which the log2 fold change is inactive: 0.045.

Consider AKIRIN2 (UniProt Q53H80), for which the log2 fold change was inactive: 0.036.

Take AIP (UniProt O00170): the log2 fold change is inactive: 0.003.

As for ACTG1 (UniProt I3L4N8), the log2 fold change was inactive: 0.082.

ACTR3B (UniProt Q9P1U1): the log2 fold change is inactive: 0.118.

Take AKNA (UniProt Q7Z591): the log2 fold change is inactive: -0.022.

In the case of AKR1C2 (UniProt P52895), the log2 fold change was inactive: 0.052.

Consider AIFM1 (UniProt O95831), for which the log2 fold change was inactive: -0.036.

For AKAP8 (UniProt O43823), the log2 fold change was inactive: 0.023.

As to ACYP1 (UniProt P07311), the log2 fold change was inactive: -0.002.

AHCY (UniProt P23526): the log2 fold change is inactive: -0.004.

ADNP (UniProt Q9H2P0): the log2 fold change is inactive: 0.018.

On to ACTR2 (UniProt P61160), for which the log2 fold change was inactive: 0.015.

ACOT7 isoform 7 (UniProt O00154): the log2 fold change was inactive: 0.01.

Consider AGFG2 (UniProt O95081), for which the log2 fold change is inactive: -0.16.

Take ACTN2, A0A494C031: the log2 fold change was inactive: 0.213.

As for ACTR5 (UniProt Q9H9F9), the log2 fold change was inactive: -0.055.

With AGRN (UniProt O00468), the log2 fold change was inactive: -0.034.

Regarding AIFM2 (UniProt Q9BRQ8), the log2 fold change was inactive: 0.188.

As to AHCYL2 (UniProt Q96HN2), the log2 fold change is inactive: -0.013.

Turning to AGA (UniProt P20933), the log2 fold change was inactive: -0.042.

On to ADA (UniProt P00813), for which the log2 fold change is inactive: -0.116.

Take ADSL (UniProt P30566): the log2 fold change was inactive: -0.017.

Turning to AFF4 (UniProt Q9UHB7), the log2 fold change was inactive: -0.031.

For the target AGPS (UniProt O00116), the log2 fold change is inactive: -0.007.

Take ADPGK (UniProt Q9BRR6): the log2 fold change was inactive: -0.029.

On to ACSF3 (UniProt Q4G176), for which the log2 fold change is inactive: -0.016.

Compound in the next test: c1cn2cc(-c3ccc4cn[nH]c4c3)nc(Nc3ccc(N4CCOCC4)cc3)c2n1 [entospletinib]
Described as above. In short, it runs like this: as §1
In the case of ACY1 (UniProt Q03154), the log2 fold change is inactive: 0.004.

Regarding ACTB, A0A2R8Y793, the log2 fold change was inactive: -0.019.

Take AKAP8L (UniProt Q9ULX6): the log2 fold change is inactive: -0.019.

On to AGFG1 isoform 4 (UniProt P52594), for which the log2 fold change is inactive: -0.023.

For ACTR10 (UniProt Q9NZ32), the log2 fold change was inactive: -0.005.

For the target AFF1 isoform 2 (UniProt P51825), the log2 fold change was inactive: -0.064.

Regarding AKAP1 (UniProt Q92667), the log2 fold change was inactive: -0.063.

ADAT2 (UniProt Q7Z6V5): the log2 fold change was inactive: 0.055.

For ADIPOR2 (UniProt Q86V24), the log2 fold change was inactive: 0.

ACTL8 (UniProt Q9H568): the log2 fold change was inactive: -0.082.

For ACTR1A (UniProt P61163), the log2 fold change is inactive: -0.007.

On to AGK (UniProt Q53H12), for which the log2 fold change was inactive: 0.032.

As to ADAM9 (UniProt Q13443), the log2 fold change was inactive: -0.064.

As for AHCYL1 (UniProt O43865), the log2 fold change is inactive: -0.03.

Take AKIRIN2 (UniProt Q53H80): the log2 fold change is inactive: 0.092.

On to AIP (UniProt O00170), for which the log2 fold change was inactive: -0.003.

With ACTG1 (UniProt I3L4N8), the log2 fold change was inactive: 0.098.

As for ACTR3B (UniProt Q9P1U1), the log2 fold change is inactive: -0.036.

Take AKNA (UniProt Q7Z591): the log2 fold change is inactive: -0.024.

Turning to AKR1C2 (UniProt P52895), the log2 fold change is inactive: -0.014.

Turning to AIFM1 (UniProt O95831), the log2 fold change is inactive: 0.007.

Regarding AKAP8 (UniProt O43823), the log2 fold change was inactive: -0.046.

As for ACYP1 (UniProt P07311), the log2 fold change was inactive: 0.008.

On to AHCY (UniProt P23526), for which the log2 fold change was inactive: 0.024.

Turning to ADNP (UniProt Q9H2P0), the log2 fold change is inactive: -0.07.

For the target ACTR2 (UniProt P61160), the log2 fold change is inactive: -0.003.

ACOT7 isoform 7 (UniProt O00154): the log2 fold change is inactive: 0.

For the target AGFG2 (UniProt O95081), the log2 fold change was inactive: -0.022.

In the case of ACTN2, A0A494C031, the log2 fold change was inactive: -0.215.

In the case of ACTR5 (UniProt Q9H9F9), the log2 fold change is inactive: -0.124.

As to AGRN (UniProt O00468), the log2 fold change is inactive: 0.049.

In the case of AIFM2 (UniProt Q9BRQ8), the log2 fold change was inactive: 0.003.

AHCYL2 (UniProt Q96HN2): the log2 fold change is inactive: 0.027.

Take AGA (UniProt P20933): the log2 fold change was inactive: 0.024.

ADA (UniProt P00813): the log2 fold change was inactive: 0.002.

As for ADSL (UniProt P30566), the log2 fold change is inactive: 0.019.

On to AFF4 (UniProt Q9UHB7), for which the log2 fold change was inactive: -0.088.

For the target AGPS (UniProt O00116), the log2 fold change is inactive: -0.005.

As for ADPGK (UniProt Q9BRR6), the log2 fold change is inactive: -0.041.

ACSF3 (UniProt Q4G176): the log2 fold change was inactive: 0.004.
